This note sets out measurements from publication PMC8269055.

Amino acid sequences for entries named in this document (tags omitted).
UniProt Q14457: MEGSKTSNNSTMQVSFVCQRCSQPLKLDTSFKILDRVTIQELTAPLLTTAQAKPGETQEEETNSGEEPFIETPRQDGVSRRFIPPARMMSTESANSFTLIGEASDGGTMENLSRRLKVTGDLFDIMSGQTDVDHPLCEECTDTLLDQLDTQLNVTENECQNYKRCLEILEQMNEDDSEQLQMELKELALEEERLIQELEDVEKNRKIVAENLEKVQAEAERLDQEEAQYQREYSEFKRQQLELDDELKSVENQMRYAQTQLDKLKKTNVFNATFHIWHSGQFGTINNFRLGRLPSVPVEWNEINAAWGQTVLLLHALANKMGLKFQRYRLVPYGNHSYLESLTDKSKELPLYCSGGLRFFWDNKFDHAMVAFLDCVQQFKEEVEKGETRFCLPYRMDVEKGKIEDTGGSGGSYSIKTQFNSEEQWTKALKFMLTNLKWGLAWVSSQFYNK
UniProt P10415: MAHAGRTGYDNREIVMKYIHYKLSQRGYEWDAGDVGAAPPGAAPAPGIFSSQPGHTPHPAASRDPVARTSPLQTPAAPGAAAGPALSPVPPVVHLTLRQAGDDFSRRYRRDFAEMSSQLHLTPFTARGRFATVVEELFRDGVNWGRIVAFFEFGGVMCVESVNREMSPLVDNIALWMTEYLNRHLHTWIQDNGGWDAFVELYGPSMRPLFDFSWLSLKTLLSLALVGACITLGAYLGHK

Results are given in words; binding and its absence hold for the method and conditions named. Binding seen in cells or lysates may run through a third protein. Some binding calls cover weakened binding; strength is not graded here.

In the assay the target is Beclin-1 (human (endogenous in pancreatic cancer cell lines)) (UniProt Q14457). Briefly: co-IP; pre-cleared lysates (1 mg/mL) of PC cells, untreated or treated with Nic (10 µM; 24 and 48 h), incubated with Beclin-1 antibody or isotype control antibody and protein A/G plus agarose beads overnight at 4 °C; washed with RIPA lysis buffer; blotted with anti-BCL2 or anti-Beclin1.

Turning to BCL2 (from UniProt P10415 1-239), the binding entry is reported as “binds”.
